Substitutions are numbered along the chain they refer to. No constants are given. Whether binding was seen depends on the method and setting. For some assays here: Binding seen in cells or lysates may run through a third protein. Some entries that bind do so weakly or less than the wild type. For some assays here: Tags and fused reporters may be left off the sequences shown.
Tests used:
L5UR-SNAP = target: T1, L5UR-SNAP (UniProt P15814); experiment: pull-down; HEK293-EBNA cells co-transfected with hGal1 and L5UR-SNAP, mutL5UR-SNAP or SNAP; cleared lysate with SNAP-capture magnetic beads 2 h at room temperature; washes with 150 mM NaCl, 0.5% NP-40; immunoblot
T1 sequence: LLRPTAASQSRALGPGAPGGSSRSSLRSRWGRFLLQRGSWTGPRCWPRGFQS

Sequences of proteins named here, by UniProt entry; tags and fusion partners are left off. A change or cut given only in a name is not applied to a line headed by its entry. Residues count along the entry.
UniProt P15056: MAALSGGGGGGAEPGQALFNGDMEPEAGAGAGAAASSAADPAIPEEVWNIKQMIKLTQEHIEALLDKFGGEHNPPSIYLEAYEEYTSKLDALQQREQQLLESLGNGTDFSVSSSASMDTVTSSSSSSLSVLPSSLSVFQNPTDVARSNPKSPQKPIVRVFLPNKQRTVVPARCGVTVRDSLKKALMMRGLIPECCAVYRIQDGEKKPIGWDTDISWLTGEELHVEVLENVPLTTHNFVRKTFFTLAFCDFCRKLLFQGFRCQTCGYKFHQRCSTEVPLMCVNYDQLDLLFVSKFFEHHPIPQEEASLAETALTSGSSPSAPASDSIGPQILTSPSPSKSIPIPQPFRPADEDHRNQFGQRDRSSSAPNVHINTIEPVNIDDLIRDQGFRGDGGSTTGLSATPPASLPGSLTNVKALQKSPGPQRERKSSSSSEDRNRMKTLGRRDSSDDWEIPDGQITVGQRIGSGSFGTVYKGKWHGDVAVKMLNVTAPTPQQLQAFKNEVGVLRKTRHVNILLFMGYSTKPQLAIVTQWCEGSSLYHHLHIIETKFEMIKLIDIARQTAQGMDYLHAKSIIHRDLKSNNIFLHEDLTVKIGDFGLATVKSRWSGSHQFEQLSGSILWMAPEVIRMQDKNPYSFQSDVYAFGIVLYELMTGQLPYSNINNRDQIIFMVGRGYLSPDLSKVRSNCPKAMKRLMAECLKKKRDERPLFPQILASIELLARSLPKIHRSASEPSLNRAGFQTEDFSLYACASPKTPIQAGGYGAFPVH
B-Raf-derived RBD (BRET construct): residues 155-227 of P15056
UniProt P09382: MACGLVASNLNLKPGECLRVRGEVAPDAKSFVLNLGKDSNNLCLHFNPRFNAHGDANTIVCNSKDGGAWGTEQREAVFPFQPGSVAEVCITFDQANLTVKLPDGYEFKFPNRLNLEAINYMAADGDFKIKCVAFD
UniProt O75901: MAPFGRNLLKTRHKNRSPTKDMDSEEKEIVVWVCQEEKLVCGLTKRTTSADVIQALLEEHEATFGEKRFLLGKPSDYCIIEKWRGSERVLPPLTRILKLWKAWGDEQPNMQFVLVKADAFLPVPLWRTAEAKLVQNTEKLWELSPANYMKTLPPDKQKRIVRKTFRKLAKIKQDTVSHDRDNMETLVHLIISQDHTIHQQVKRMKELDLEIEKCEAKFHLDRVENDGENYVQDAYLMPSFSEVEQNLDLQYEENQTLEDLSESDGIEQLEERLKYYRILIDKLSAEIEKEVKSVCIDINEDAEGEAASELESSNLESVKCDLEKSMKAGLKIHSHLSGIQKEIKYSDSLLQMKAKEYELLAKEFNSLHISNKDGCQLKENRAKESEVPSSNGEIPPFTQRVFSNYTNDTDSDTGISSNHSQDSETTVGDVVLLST

[1] = target: T2, biotin-tagged L5UR peptide (UniProt P15814); experiment: pull-down; biotinylated L5UR (4 µM) with His-Gal1, GST-B-RBD or GST (2 µM each) in 150 µL; peptide and Gal1 30 min at 37 °C, then GST-B-RBD or GST 1 h; beads 1 h at room temperature; immunoblot; both purified
T2 sequence (peptide, N-terminal biotin via a PEG5-linker): T1 sequence

[2] = target: B-Raf-derived RBD (BRET construct) (UniProt P15056); experiment: FRET or BRET; dose-response BRET of Gal1/B-RBD (donor:acceptor plasmid 1:10) in HEK293-EBNA cells with 125 to 850 ng modulator plasmid of L5UR constructs, 48 h
B-Raf (BRET construct) = B-Raf (BRET construct) (UniProt P15056); experiment: FRET or BRET; BRET donor saturation titration in HEK293-EBNA cells; 25 ng donor plasmid, 25 to 1000 ng acceptor plasmid, 48 h expression; BRETtop compared
[3] = target: B-Raf-derived RBD (BRET construct) (UniProt P15056); experiment: as above
[4] = target: T3, A-RBD with mutation D75A (BRET construct) (UniProt P10398); experiment: as above
T3 sequence: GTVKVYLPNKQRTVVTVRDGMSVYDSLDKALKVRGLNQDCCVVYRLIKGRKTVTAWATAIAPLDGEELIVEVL

[5] = target: T4, A-Raf-derived RBD (BRET construct) (UniProt P10398); experiment: as above
T4 sequence: T3 sequence with A57D

With “full-length B-Raf (HEK lysate) (from UniProt P15056 1-766)” the binding (L5UR-SNAP) was “binds”.

For “His-tagged galectin-1 (from UniProt P09382 1-135)”, the binding [1] was “binds”.

“galectin-1 (BRET construct) (from UniProt P09382 1-135)” was tested, and the binding [2] was “binds”, the binding (B-Raf (BRET construct)) was “binds” and the binding [3] was “binds”. For the same substance, the binding [4] was “binds” and the binding [5] was “binds”.

“RASSF9 (HEK lysate) (from UniProt O75901 1-435)” was tested, and the binding (L5UR-SNAP) was “binds”.
